Assay results as given in PubChem BioAssay AID2685 (National Center for Advancing Translational Sciences (NCATS), 2010).
The other results are listed elsewhere or left out. These are further read-outs of the screen, such as a control signal, another cell line or another target. No call is given for them. The list favours compounds with an active or inconclusive main result. Words in brackets tell the shape of the fitted curve; partial curves, single points and poor fits give uncertain potencies.

Assay: qHTS Assay for Lipid Storage Modulators in Drosophila S3 Cells;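 for cell number change: cells counted by Cell Tracker Red CMTPX staining in the red channel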
Conditions: BODIPY lipid droplet fluorescence, 18-24 h; for cell number change: measured here: cell count max response, cells fed with added oleic acid
Summary of the method: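 Laser-scanning cytometry quantifies lipid droplet accumulation (500–530 nm total intensity; droplet/cell object ratio) in oleic acid-fed (400 uM added) Drosophila S3 cells treated with a concentration series. 20 uM Triacsin C defined 100% inhibition.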

[1] = measured here: lipid fluorescence (Fed channel) AC50, cells fed with added oleic acid
[2] = measured here: cell number channel AC50, cells fed with added oleic acid

SMILES | cell number change [%] | AC50 [1] | AC50 [2]
Cc1c(C)c2c(OCC(=O)N[C@@H](C(=O)O)c3ccccc3)cc3c(c2oc1=O)CCC(C)(C)O3 | 6.8 | 5.8 µM [rising, partial curve, poor fit] | 
CC1(C)Cc2c(ccc3ccccc23)C(NNC(=O)c2cccnc2)=N1 | 25.7 | 11.6 µM [rising, partial curve, poor fit] | 
CC1/C(=N/O)CC(c2ccco2)NC1c1ccco1 (centres undefined) | 14.5 |  | 1.64 µM [rising, partial curve]
O=C(Nc1ccccc1N1CCN(C(=O)c2ccc(Cl)cc2)CC1)c1ccc2c(c1)OCO2 | 58.7 | 0.461 µM [rising, full curve] | 0.517 µM [rising, full curve]
O=C(Nc1ccc(F)c(Cl)c1)C1CC(=O)n2c(nc3ccccc32)N1 (centres undefined) | -40.2 |  | 29.1 µM [falling, single point]
O=[N+]([O-])c1ccc(OCn2cncn2)cc1 | 4.03 | 0.092 µM [falling, full curve, poor fit] | 0.103 µM [falling, full curve, poor fit]
Cc1cc(=O)[nH]c(/N=C(\N)Nc2ccc3c(c2)OCCO3)n1 | 86.4 |  | 3.26 µM [rising, full curve]
CC(Sc1c[nH]c2ccccc12)C(=O)O (centres undefined) | 10.6 | 0.731 µM [rising, full curve, poor fit] | 
CC(=O)c1ccc(OC(=O)N(c2ccccc2)c2ccccc2)cc1 | 53.2 | 16.4 µM [rising, partial curve] | 20.6 µM [rising, single point]
O=C(NCc1ccco1)C1CCCN(S(=O)(=O)c2cccc3nonc23)C1 (centres undefined) | -2.04 |  | 
COc1cc2nc(SCc3c(C)noc3C)n(CCC3=CCCCC3)c(=O)c2cc1OC | -32.1 | 5.17 µM [falling, full curve, poor fit] | 5.8 µM [falling, full curve]
COc1cc2c(cc1OC)C(c1ccc(N(C)C)cc1)CC(=O)N2 (centres undefined) | 1.59 |  | 
CC(=O)N1CCN(C(=O)c2cc(C)nc3ccccc23)CC1 | 5.54 | 11.6 µM [falling, partial curve] | 
CCOc1cc(N2CCOCC2)c(OCC)cc1NC(=O)C1CC(=O)N(c2ccccc2OCC)C1 (centres undefined) | 45.6 | 29.1 µM [rising, single point] | 29.1 µM [rising, single point]
O=C(Nc1nccs1)C1Cc2ccccc2CN1S(=O)(=O)c1ccc(F)cc1 (centres undefined) | -9.21 | 29.1 µM [falling, single point] | 
CCn1cc(Br)c(C(=O)NC(C)c2ccccc2)n1 (centres undefined) | 0.0638 | 0.58 µM [rising, full curve] | 
O=C(O)CCCC(=O)Nc1cccc(C(F)(F)F)c1 | -17 | 29.1 µM [falling, single point] | 
O=C(OCc1cc([N+](=O)[O-])cc2c1OCOC2)c1cccnc1SC(F)F | -50 |  | 0.517 µM [falling, full curve]
CCN(CC)c1ccc(/C=N/N2CCN(Cc3ccc(Cl)cc3)CC2)c(O)c1 |  | 6.51 µM [falling, single point] | 

Some of the entries so far, as comma-separated lines:
SMILES,cell number change [%],AC50 [1],AC50 [2]
Cc1cc(=O)[nH]c(/N=C(\N)Nc2ccc3c(c2)OCCO3)n1,86.4,,"3.26 µM [rising, full curve]"
CC(Sc1c[nH]c2ccccc12)C(=O)O (centres undefined),10.6,"0.731 µM [rising, full curve, poor fit]",
CC(=O)c1ccc(OC(=O)N(c2ccccc2)c2ccccc2)cc1,53.2,"16.4 µM [rising, partial curve]","20.6 µM [rising, single point]"
O=C(NCc1ccco1)C1CCCN(S(=O)(=O)c2cccc3nonc23)C1 (centres undefined),-2.04,,
COc1cc2nc(SCc3c(C)noc3C)n(CCC3=CCCCC3)c(=O)c2cc1OC,-32.1,"5.17 µM [falling, full curve, poor fit]","5.8 µM [falling, full curve]"
COc1cc2c(cc1OC)C(c1ccc(N(C)C)cc1)CC(=O)N2 (centres undefined),1.59,,
CC(=O)N1CCN(C(=O)c2cc(C)nc3ccccc23)CC1,5.54,"11.6 µM [falling, partial curve]",
CCOc1cc(N2CCOCC2)c(OCC)cc1NC(=O)C1CC(=O)N(c2ccccc2OCC)C1 (centres undefined),45.6,"29.1 µM [rising, single point]","29.1 µM [rising, single point]"
O=C(Nc1nccs1)C1Cc2ccccc2CN1S(=O)(=O)c1ccc(F)cc1 (centres undefined),-9.21,"29.1 µM [falling, single point]",
CCn1cc(Br)c(C(=O)NC(C)c2ccccc2)n1 (centres undefined),0.0638,"0.58 µM [rising, full curve]",

The results go on.

SMILES | cell number change [%] | AC50 [1] | AC50 [2]
CCCc1nn2c(=O)cc(CSCC(=O)Nc3cccc(OC)c3)nc2s1 | -0.298 |  | 
CCC(=O)Nc1cccc(-c2nnc(SCC(=O)NCc3ccco3)n2C)c1 | 6.9 |  | 
CN(C)CCN(C(=O)CN1C(=O)c2ccccc2C1=O)c1nc2cc3c(cc2s1)OCCO3 | -45.4 |  | 3.26 µM [falling, full curve]
CCN(CC(=O)Nc1ccc2c(c1)OCCO2)c1ccc(S(=O)(=O)N2CCOCC2)cn1 | 4.91 | 0.00461 µM [rising, full curve, poor fit] | 
Cc1ccccc1NS(=O)(=O)c1cc(S(C)(=O)=O)ccc1C | 83.3 |  | 13 µM [rising, partial curve]
CC(/C=C/c1ccco1)=N/NC(=O)c1ccc(C)nc1 | -11.2 | 4.61 µM [falling, single point] | 
Cc1ccc(N(CC(=O)N=Nc2c(O)[nH]c3ccccc23)S(C)(=O)=O)c(C)c1 | -0.107 |  | 2.31 µM [falling, partial curve]
Cc1ccc(S(=O)(=O)N2CCC(C(=O)OCCOc3cccc(C)c3)CC2)cc1 | -0.688 | 2.06 µM [falling, partial curve, poor fit] | 
N#CCCn1cc(C(=O)Nc2ccccc2Br)c(-c2cc3ccccc3o2)n1 | -29.2 | 29.1 µM [falling, single point] | 
O=C(NNC(=O)C12CC3CC(CC(O)(C3)C1)C2)c1csc(N2CCOCC2)n1 | 31.4 |  | 8.2 µM [rising, partial curve, poor fit]
CC[N+](CC)(CCO)CCCN1C(=O)C2CC=C(Cl)CC2C1=O (centres undefined) | 2.13 | 20.6 µM [rising, single point] | 
CC1Cc2ccccc2N1C(=O)c1cccnc1 (centres undefined) |  | 0.116 µM [falling, full curve, poor fit] | 0.0731 µM [falling, full curve, poor fit]
COc1ccccc1N1CCN(CC(=O)N(CC(C)C)c2c(N)n(CC(C)C)c(=O)[nH]c2=O)CC1 | -24.1 | 29.1 µM [falling, single point] | 
CCCc1cc(=O)[nH]c(SCC(=O)c2cc(C)n(C)c2C)n1 | 2.61 | 2.91 µM [falling, single point] | 
Cc1nc2sccn2c(=O)c1CCN1CCC(=C(c2ccc(F)cc2)c2ccc(F)cc2)CC1 | -57.2 | 5.8 µM [rising, partial curve] | 32.6 µM [falling, single point]
CSc1ncccc1C(=O)OCC(=O)N(CC(C)C)c1c(N)n(Cc2ccccc2)c(=O)[nH]c1=O | -41 |  | 29.1 µM [falling, single point]
CCCCCNC(=O)CCCCn1c(=O)[nH]c2cc(OCC)c(OCC)cc2c1=O | -10.7 | 0.58 µM [falling, full curve] | 
Cc1ccc(-c2nc(NC(=O)c3ccc(S(=O)(=O)N(CCC#N)CCC#N)cc3)sc2-c2ccccc2)cc1 | 2.57 |  | 
